From the supplement of paper PMC10849652
The other results are listed elsewhere or left out.

The chains behind the UniProt entries cited, without tags or fusion partners. Where a name states a change or a piece, a line headed by the entry shows the natural chain unless it says otherwise.
UniProt Q15041, whole entry, looked up: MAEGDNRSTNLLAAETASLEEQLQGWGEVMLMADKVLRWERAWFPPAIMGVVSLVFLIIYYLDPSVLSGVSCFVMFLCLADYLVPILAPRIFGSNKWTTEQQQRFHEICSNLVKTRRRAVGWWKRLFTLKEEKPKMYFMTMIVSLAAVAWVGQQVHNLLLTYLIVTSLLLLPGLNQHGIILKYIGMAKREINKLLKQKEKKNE
UniProt Q9Y4X5: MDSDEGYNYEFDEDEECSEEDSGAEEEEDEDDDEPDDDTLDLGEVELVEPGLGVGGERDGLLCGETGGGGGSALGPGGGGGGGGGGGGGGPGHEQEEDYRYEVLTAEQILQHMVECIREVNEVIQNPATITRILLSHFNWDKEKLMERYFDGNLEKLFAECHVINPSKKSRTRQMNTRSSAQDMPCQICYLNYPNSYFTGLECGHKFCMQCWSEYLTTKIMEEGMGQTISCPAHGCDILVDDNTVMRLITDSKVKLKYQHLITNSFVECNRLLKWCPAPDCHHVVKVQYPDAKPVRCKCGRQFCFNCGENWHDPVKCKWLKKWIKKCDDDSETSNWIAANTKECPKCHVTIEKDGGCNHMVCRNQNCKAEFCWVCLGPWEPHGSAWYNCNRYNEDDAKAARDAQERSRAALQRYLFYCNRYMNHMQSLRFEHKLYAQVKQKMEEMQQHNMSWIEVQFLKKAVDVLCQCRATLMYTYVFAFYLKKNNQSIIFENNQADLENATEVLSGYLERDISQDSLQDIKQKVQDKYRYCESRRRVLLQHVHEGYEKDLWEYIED
UniProt Q96BM9: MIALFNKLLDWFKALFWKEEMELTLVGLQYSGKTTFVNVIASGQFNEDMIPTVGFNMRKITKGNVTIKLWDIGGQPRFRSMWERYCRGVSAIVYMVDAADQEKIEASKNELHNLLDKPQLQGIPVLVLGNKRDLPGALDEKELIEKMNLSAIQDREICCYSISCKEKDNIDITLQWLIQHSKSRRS
UniProt P15289: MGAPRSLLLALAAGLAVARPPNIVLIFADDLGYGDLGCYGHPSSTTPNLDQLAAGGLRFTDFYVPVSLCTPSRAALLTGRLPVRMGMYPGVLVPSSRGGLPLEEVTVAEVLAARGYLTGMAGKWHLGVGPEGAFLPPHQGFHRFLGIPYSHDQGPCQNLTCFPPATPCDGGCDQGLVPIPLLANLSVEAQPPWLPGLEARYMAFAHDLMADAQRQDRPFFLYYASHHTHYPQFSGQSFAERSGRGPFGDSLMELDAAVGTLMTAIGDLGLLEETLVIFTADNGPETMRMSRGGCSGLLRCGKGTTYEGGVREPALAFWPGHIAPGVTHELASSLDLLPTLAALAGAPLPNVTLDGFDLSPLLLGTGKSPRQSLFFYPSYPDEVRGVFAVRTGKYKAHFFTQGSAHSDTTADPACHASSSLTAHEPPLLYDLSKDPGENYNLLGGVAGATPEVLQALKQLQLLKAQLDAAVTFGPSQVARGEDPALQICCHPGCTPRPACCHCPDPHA
UniProt P62330: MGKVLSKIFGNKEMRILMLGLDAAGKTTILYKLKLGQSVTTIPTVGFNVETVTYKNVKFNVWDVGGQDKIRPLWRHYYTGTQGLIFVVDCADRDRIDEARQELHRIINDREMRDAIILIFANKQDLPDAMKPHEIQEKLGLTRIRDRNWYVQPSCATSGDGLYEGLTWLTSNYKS
UniProt O95376: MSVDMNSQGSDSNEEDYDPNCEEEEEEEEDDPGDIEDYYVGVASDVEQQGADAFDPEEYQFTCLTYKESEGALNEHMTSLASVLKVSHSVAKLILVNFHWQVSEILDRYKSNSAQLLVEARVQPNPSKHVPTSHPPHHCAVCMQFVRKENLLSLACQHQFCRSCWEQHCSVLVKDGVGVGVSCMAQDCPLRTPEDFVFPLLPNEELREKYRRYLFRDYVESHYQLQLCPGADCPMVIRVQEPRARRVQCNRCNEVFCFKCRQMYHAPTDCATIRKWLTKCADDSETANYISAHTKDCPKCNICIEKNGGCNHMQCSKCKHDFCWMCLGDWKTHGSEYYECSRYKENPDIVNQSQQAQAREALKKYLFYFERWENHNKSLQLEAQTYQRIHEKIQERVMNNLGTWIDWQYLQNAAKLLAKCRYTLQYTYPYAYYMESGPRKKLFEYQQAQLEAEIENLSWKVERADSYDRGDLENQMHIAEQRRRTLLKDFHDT
UniProt Q99856: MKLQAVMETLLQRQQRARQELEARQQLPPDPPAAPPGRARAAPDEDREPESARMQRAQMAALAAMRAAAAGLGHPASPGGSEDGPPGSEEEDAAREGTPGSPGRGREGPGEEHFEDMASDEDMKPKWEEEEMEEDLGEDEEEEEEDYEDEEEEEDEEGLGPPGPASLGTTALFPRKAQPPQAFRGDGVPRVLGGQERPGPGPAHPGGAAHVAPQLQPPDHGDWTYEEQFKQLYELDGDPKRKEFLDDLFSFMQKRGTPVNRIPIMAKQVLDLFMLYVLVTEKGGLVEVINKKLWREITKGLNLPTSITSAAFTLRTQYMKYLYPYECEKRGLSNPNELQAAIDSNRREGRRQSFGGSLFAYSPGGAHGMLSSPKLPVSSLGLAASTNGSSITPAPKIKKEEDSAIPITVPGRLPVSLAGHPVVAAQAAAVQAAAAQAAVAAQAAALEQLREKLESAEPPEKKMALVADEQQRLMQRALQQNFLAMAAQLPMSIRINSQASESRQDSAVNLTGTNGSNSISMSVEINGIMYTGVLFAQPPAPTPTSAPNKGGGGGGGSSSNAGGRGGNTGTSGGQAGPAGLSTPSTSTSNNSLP
UniProt Q9H2C2: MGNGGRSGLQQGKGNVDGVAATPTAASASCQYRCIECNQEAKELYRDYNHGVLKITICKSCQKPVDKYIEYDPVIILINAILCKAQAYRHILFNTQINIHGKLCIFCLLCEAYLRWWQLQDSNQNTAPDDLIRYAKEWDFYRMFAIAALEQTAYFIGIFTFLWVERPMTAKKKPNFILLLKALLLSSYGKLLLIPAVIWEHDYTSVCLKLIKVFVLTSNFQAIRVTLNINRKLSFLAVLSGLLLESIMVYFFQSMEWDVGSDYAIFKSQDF
UniProt Q14155: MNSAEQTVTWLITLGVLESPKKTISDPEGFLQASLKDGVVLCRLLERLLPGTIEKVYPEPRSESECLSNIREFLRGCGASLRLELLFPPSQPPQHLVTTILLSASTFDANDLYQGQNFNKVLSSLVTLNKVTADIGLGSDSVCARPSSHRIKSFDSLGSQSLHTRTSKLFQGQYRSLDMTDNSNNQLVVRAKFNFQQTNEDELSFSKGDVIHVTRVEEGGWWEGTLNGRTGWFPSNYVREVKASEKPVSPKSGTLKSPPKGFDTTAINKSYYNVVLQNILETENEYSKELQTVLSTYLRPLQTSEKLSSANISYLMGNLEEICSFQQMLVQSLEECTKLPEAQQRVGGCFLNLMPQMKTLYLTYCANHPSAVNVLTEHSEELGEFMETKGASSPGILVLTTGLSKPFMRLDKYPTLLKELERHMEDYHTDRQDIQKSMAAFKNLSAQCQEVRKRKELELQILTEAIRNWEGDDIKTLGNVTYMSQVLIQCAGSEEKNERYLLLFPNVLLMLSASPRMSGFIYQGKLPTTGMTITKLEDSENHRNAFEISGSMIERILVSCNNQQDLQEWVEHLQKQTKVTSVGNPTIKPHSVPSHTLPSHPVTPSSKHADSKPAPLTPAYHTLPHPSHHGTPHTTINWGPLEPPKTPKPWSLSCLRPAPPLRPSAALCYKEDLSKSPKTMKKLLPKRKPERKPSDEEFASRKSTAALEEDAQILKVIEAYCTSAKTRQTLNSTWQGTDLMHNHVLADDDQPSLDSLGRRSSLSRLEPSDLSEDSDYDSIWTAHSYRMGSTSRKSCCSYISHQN
UniProt Q9NZN5: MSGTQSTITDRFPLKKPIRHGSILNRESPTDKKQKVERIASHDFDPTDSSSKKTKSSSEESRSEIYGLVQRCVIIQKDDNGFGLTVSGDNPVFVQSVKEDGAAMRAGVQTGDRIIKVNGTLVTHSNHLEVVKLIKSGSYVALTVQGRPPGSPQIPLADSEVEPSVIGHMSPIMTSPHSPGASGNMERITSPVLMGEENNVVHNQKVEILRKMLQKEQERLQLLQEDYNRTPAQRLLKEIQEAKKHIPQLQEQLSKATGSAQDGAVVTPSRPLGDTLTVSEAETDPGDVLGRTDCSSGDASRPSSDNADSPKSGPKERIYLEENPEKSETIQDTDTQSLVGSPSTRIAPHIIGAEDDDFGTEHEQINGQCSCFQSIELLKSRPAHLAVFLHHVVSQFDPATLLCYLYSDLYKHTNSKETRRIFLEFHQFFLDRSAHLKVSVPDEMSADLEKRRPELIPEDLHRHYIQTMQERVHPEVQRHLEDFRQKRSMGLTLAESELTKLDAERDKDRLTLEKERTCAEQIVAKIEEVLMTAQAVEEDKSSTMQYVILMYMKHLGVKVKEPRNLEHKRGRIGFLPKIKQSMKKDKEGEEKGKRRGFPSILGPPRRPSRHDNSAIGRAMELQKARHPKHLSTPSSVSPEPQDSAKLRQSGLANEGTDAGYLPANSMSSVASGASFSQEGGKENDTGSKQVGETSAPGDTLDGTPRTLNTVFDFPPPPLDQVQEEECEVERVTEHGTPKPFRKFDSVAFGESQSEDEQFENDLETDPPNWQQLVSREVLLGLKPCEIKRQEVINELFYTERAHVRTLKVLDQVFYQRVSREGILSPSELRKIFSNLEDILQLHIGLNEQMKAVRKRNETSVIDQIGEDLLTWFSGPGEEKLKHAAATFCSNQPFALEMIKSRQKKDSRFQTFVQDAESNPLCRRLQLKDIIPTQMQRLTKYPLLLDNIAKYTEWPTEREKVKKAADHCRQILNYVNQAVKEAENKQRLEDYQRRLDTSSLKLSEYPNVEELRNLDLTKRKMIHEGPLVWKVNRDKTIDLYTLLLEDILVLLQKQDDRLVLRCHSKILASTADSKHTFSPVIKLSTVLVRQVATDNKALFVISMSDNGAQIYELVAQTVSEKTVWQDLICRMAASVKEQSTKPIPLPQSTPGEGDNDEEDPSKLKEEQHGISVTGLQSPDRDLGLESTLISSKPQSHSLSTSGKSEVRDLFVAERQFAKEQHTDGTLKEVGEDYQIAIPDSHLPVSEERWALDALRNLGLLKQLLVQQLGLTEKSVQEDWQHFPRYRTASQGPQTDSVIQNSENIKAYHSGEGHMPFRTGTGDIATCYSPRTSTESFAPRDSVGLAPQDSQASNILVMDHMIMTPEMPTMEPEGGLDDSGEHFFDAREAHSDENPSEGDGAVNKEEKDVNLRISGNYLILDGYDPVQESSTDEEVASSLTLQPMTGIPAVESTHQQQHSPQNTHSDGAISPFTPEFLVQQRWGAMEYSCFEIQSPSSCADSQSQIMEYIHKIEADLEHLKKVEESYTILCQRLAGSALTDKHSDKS
UniProt P15848: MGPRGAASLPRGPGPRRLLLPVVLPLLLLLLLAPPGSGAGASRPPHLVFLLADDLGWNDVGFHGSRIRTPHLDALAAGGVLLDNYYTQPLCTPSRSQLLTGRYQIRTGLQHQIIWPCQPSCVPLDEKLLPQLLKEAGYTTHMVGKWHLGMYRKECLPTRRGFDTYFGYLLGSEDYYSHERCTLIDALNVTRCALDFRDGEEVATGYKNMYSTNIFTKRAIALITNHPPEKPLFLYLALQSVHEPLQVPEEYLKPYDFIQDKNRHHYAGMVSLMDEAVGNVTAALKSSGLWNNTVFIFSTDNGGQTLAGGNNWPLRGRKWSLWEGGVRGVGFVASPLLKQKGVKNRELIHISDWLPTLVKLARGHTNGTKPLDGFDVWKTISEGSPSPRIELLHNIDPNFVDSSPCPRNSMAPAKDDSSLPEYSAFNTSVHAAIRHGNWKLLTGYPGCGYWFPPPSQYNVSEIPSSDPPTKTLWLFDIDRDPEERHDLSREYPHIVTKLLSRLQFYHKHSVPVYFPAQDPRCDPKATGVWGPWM
UniProt Q96GX9: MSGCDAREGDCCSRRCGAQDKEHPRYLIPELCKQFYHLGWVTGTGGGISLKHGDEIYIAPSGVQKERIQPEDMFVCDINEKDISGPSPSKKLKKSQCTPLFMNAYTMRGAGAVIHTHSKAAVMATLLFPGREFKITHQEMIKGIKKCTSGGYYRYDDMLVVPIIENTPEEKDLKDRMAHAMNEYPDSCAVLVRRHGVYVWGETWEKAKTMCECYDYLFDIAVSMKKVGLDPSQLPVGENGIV
UniProt O75915: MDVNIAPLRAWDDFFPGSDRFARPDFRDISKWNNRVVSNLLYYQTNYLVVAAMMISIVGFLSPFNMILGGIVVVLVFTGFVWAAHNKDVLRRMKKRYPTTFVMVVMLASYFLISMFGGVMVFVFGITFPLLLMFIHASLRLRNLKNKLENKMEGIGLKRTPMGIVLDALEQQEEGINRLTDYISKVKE
UniProt P84085: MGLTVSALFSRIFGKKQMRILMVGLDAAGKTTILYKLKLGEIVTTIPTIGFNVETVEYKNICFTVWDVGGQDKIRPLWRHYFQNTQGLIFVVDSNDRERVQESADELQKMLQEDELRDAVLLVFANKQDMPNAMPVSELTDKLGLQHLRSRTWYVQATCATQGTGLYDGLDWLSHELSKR

Experiments:
Assay in all cases: log2 fold change, soluble protein after heating vs DMSO (PISA); higher = thermal stabilisation; K562 lysate, 10 uM; active = over 0.2 and 3.5 SD of the protein, either way, in both replicates (recomputed)
nilotinib = compound: Cc1cn(-c2cc(NC(=O)c3ccc(C)c(Nc4nccc(-c5cccnc5)n4)c3)cc(C(F)(F)F)c2)cn1 [nilotinib]
In short: (§1)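 Log-two fold change in thermal stability relative to solvent controls is reported from duplicates. For each sample, crude K562 extract from dounce-homogenised pellets in PBS pH 7.4 with 1 mM MgCl2, at 1 mg/mL protein, was treated with 10 μM compound for 30 min. Aliquots heated for 3 min across 48°C-58°C were pooled, brought to 0.5% NP-40 at 4°C and cleared at 21,000xg for 90 min. The supernatant was quantified by TMTpro 16plex LC-MS/MS with channel sums equalised.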

[1] = compound: Cc1nc(Nc2n[nH]c3c2CN(C(=O)N[C@H](CN(C)C)c2ccccc2)C3(C)C)c2sccc2n1
In short: as §1

dasatinib = compound: Cc1nc(Nc2ncc(C(=O)Nc3c(C)cccc3Cl)s2)cc(N2CCN(CCO)CC2)n1 [dasatinib]
In short: as §1

[2] = compound: Cc1ncc(-c2ccnc(Nc3ccc(S(C)(=O)=O)cc3)n2)n1C(C)C
In short: as §1

[3] = compound: Cn1cc(-c2ccc3c(c2)CCN3C(=O)Cc2cccc(C(F)(F)F)c2)c2c(N)ncnc21
In short: as §1

quisinostat = compound: Cn1cc(CNCC2CCN(c3ncc(C(=O)NO)cn3)CC2)c2ccccc21 [quisinostat]
In short: as §1

tipifarnib = compound: Cn1cncc1[C@@](N)(c1ccc(Cl)cc1)c1ccc2c(c1)c(-c1cccc(Cl)c1)cc(=O)n2C [tipifarnib]
In short: as §1

[4] = compound: NC(=O)Nc1cc(-c2cccc(F)c2)sc1C(=O)N[C@H]1CCCNC1
In short: as §1

[5] = compound: NC(=O)c1cnc(N[C@@H]2CCCC[C@@H]2N)nc1Nc1cccc(-n2nccn2)c1
In short: as §1

[6] = compound: NC1(c2ccc(-c3nc4ccn5c(=O)[nH]nc5c4cc3-c3ccccc3)cc2)CCC1
In short: as §1

Measured: log2 fold change

ARL6IP1 (UniProt Q15041)
inactive: nilotinib 0.053 | [1] 0.057 | dasatinib -0.001 | [2] 0.015 | [3] 0.007 | quisinostat 0.025 | tipifarnib -0.027 | [4] -0.019 | [5] 0.013 | [6] 0.021

ARRB2 isoform 3 (UniProt P32121)
inactive: nilotinib 0.008 | [1] -0.036 | dasatinib -0.031 | [2] -0.006 | [3] 0.046 | quisinostat -0.064 | tipifarnib 0.014 | [4] -0.011 | [5] 0.006 | [6] 0.022

ARID3B (UniProt Q8IVW6)
inactive: nilotinib 0.048 | [1] 0.044 | dasatinib -0.114 | [2] 0.008 | [3] 0.012 | quisinostat 0.008 | tipifarnib -0.009 | [4] -0.002 | [5] 0.028 | [6] 0.012

ARIH1 (UniProt Q9Y4X5)
inactive: nilotinib 0.037 | [1] 0.03 | dasatinib -0.044 | [2] 0.018 | [3] -0.015 | quisinostat 0.038 | tipifarnib 0.007 | [4] -0.014 | [5] -0.017 | [6] 0.007

ARID1A (UniProt O14497)
inactive: nilotinib -0.013 | [1] 0.014 | dasatinib -0.028 | [2] -0.016 | [3] -0.005 | quisinostat -0.014 | tipifarnib -0.006 | [4] 0.013 | [5] -0.003 | [6] 0.002

ARL8A (UniProt Q96BM9)
inactive: nilotinib 0.003 | [1] 0.049 | dasatinib 0.037 | [2] 0.091 | [3] -0.049 | quisinostat 0.17 | tipifarnib -0.203 | [4] 0.153 | [5] 0.247 | [6] -0.054

API5 isoform 2 (UniProt Q9BZZ5)
inactive: nilotinib -0.013 | [1] -0.02 | dasatinib 0.068 | [2] -0.038 | [3] -0.002 | quisinostat 0.002 | tipifarnib -0.013 | [4] -0.019 | [5] 0.016 | [6] -0.101

ARSA (UniProt P15289)
inactive: nilotinib 0.012 | [1] -0.007 | dasatinib -0.022 | [2] -0.052 | [3] 0.062 | quisinostat 0.024 | tipifarnib 0.009 | [4] -0.031 | [5] -0.008 | [6] 0

ARF6 (UniProt P62330)
inactive: nilotinib 0.001 | [1] 0.029 | dasatinib -0.007 | [2] -0.009 | [3] 0.026 | quisinostat -0.04 | tipifarnib 0.011 | [4] 0.013 | [5] 0.069 | [6] 0.035

ARIH2 (UniProt O95376)
inactive: nilotinib 0.008 | [1] -0.01 | dasatinib -0.063 | [2] -0.015 | [3] -0.04 | quisinostat 0.065 | tipifarnib 0.011 | [4] -0.056 | [5] 0.021 | [6] -0.024

ARPC1B (UniProt O15143)
inactive: nilotinib 0.028 | [1] 0.026 | dasatinib 0.059 | [2] 0.045 | [3] 0.022 | quisinostat 0.001 | tipifarnib -0.007 | [4] -0.024 | [5] -0.036 | [6] -0.002

APOB (UniProt P04114)
inactive: nilotinib -0.002 | [1] 0.022 | dasatinib -0.096 | [2] -0.017 | [3] -0.038 | quisinostat -0.092 | tipifarnib 0.033 | [4] 0.013 | [5] -0.035 | [6] 0.008

ARID3A (UniProt Q99856)
inactive: nilotinib 0.008 | [1] 0.005 | dasatinib -0.037 | [2] 0.002 | [3] 0.008 | quisinostat -0.004 | tipifarnib 0.016 | [4] 0.018 | [5] 0.07 | [6] 0.033

ARHGAP17 (UniProt Q68EM7)
inactive: nilotinib 0.012 | [1] -0.006 | dasatinib -0.031 | [2] -0.019 | [3] 0.008 | quisinostat -0.081 | tipifarnib -0.046 | [4] 0.023 | [5] -0.005 | [6] 0.005

ARV1 (UniProt Q9H2C2)
inactive: nilotinib -0.181 | [1] 0.079 | dasatinib 0.001 | [2] 0.001 | [3] -0.043 | quisinostat 0.086 | tipifarnib -0.232 | [4] -0.084 | [5] 0.01

ARID2 (UniProt Q68CP9)
inactive: nilotinib 0.06 | [1] 0.009 | dasatinib -0.023 | [2] -0.039 | [3] 0.03 | quisinostat 0.035 | tipifarnib -0.028 | [4] -0.034 | [5] 0.017

ARHGEF7 isoform 5 (UniProt Q14155)
inactive: nilotinib 0.004 | [1] 0.009 | dasatinib -0.022 | [2] 0.013 | [3] 0.005 | quisinostat 0.004 | tipifarnib 0.014 | [4] -0.008 | [5] 0.04 | [6] -0.019

2 records drawn at random from those above:
ARV1 (UniProt Q9H2C2)
inactive: nilotinib -0.181 | [1] 0.079 | dasatinib 0.001 | [2] 0.001 | [3] -0.043 | quisinostat 0.086 | tipifarnib -0.232 | [4] -0.084 | [5] 0.01

ARID3A (UniProt Q99856)
inactive: nilotinib 0.008 | [1] 0.005 | dasatinib -0.037 | [2] 0.002 | [3] 0.008 | quisinostat -0.004 | tipifarnib 0.016 | [4] 0.018 | [5] 0.07 | [6] 0.033

(next part)

APPL1 (UniProt Q9UKG1)
inactive: nilotinib -0.008 | [1] 0.05 | dasatinib -0.01 | [2] -0.015 | [3] 0.031 | quisinostat -0.049 | tipifarnib 0.036 | [4] 0.026 | [5] -0.014 | [6] 0.015

ARFIP2 (UniProt P53365)
inactive: nilotinib 0.008 | [1] 0.02 | dasatinib -0.052 | [2] -0.003 | [3] -0.006 | quisinostat -0.085 | tipifarnib 0.03 | [4] 0.046 | [5] 0.025 | [6] 0.016

ARL3 (UniProt P36405)
inactive: nilotinib 0.02 | [1] -0.039 | dasatinib -0.009 | [2] -0.002 | [3] 0.014 | quisinostat 0.001 | tipifarnib 0.017 | [4] 0 | [5] 0 | [6] -0.005

ARHGEF12 (UniProt Q9NZN5)
inactive: nilotinib -0.032 | [1] 0.012 | dasatinib -0.031 | [2] 0.023 | [3] 0.024 | quisinostat 0.009 | tipifarnib -0.047 | [4] -0.016 | [5] 0.03 | [6] 0.04

ARSB (UniProt P15848)
inactive: nilotinib 0.043 | [1] -0.052 | dasatinib 0.033 | [2] 0.118 | [3] -0.045 | quisinostat -0.019 | tipifarnib -0.002 | [4] -0.021 | [5] -0.041 | [6] -0.008

APIP (UniProt Q96GX9)
inactive: nilotinib 0.003 | [1] -0.002 | dasatinib -0.019 | [2] -0.001 | [3] -0.061 | quisinostat 0.016 | tipifarnib 0.015 | [4] 0.002 | [5] -0.035 | [6] -0.009

ARID4B (UniProt Q4LE39)
inactive: nilotinib 0.059 | [1] -0.055 | dasatinib 0.005 | [2] 0.032 | [3] 0.024 | quisinostat -0.012 | tipifarnib -0.039 | [4] 0.029 | [5] -0.023 | [6] -0.036

ARL6IP5 (UniProt O75915)
inactive: nilotinib 0.015 | [1] -0.035 | dasatinib -0.047 | [2] -0.093 | [3] 0.036 | quisinostat 0.132 | tipifarnib 0.027 | [4] 0.03 | [5] -0.003 | [6] 0.038

ARL5A (UniProt Q9Y689)
inactive: nilotinib 0.235 | [1] -0.029 | dasatinib -0.109 | [2] -0.014 | [3] 0.074 | quisinostat 0.064 | tipifarnib -0.043 | [4] -0.146 | [5] 0

APOBEC3D (UniProt Q96AK3)
inactive: nilotinib 0.018 | [1] -0.028 | dasatinib -0.121 | [2] -0.002 | [3] 0.042 | quisinostat 0.011 | tipifarnib 0.05 | [4] 0.038 | [5] 0.018 | [6] -0.052

ARMC1 (UniProt Q9NVT9)
inactive: nilotinib -0.001 | [1] 0.006 | dasatinib -0.018 | [2] -0.001 | [3] -0.01 | quisinostat -0.046 | tipifarnib 0.02 | [4] 0.031 | [5] 0.02 | [6] -0.006

ARHGDIB (UniProt P52566)
inactive: nilotinib 0.015 | [1] -0.037 | dasatinib -0.061 | [2] -0.012 | [3] -0.007 | quisinostat -0.012 | tipifarnib 0.017 | [4] 0.021 | [5] 0.015 | [6] 0.008

ARF5 (UniProt P84085)
inactive: nilotinib 0.018 | [1] 0.032 | dasatinib 0.016 | [2] -0.005 | [3] -0.01 | quisinostat -0.018 | tipifarnib 0.006 | [4] -0.045 | [5] -0.024 | [6] 0.011
